Results reported in patent publication US20080132446A1, “Uses of neuronal pannexins for therapy and diagnosis in mammals” (INSTITUT PASTEUR, priority 2003, published 2008).
Some entries share one result that the patent states for a list of compounds.

Chains of the proteins cited; added tags and fusions are not shown.
UniProt P60570, whole entry: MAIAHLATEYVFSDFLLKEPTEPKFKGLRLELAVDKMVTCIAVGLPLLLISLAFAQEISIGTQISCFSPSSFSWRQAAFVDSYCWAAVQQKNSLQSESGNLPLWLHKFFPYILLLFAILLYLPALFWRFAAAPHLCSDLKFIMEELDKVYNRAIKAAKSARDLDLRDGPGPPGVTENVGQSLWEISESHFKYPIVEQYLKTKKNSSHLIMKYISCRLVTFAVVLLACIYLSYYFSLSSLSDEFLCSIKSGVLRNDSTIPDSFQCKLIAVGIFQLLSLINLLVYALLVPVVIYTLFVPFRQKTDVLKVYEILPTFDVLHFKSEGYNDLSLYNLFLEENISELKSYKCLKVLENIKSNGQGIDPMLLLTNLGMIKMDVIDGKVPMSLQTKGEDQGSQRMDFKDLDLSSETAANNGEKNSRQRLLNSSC

Target: T1, Px1 hemi-channels (Rattus norvegicus, UniProt P60570)
T1 construct: expressed in transfected cells; host or cells: Xenopus laevis oocytes injected with in vitro transcribed RNA (pBSxG vector) plus antisense to endogenous Cx38
Assay: Px1 hemi-channel currents in single Xenopus oocytes (two-electrode voltage-clamp)
Format: cell-based
Procedure: For physiological analysis, cells were injected with a total volume of 40 nl of either an antisense oligonucleotide (3 ng/cell) to suppress the endogenous Xenopus Cx38 (30), or a mixture of antisense plus the specified RNA (20-80 ng/cell). The ability of pannexins to form hemi-channels was assessed in single oocytes 2-4 days after RNA injection, using a two-electrode voltage-clamp.
Whole-cell membrane currents (Im) were measured from single oocytes co-injected with pannexin RNAs and an oligonucleotide antisense to Xenopus Cx38 (FIG. 3A). Cells were initially clamped at a membrane potential (Vm) of −40 mV and depolarizing steps lasting 2 sec were applied in 10 mV increments up to +60 mV (bottom traces).
Stage V-VI cells were individually selected under a dissecting microscope and cultured thereafter in control medium at 18° C. […]
The setup, hardware and software used for electrophysiological measurements and data analysis were as previously described (54; 49). Cells were clamped at −40 mV, and whole cell currents recorded in response to depolarizing voltage steps (from −20 to +60 mV in 20 mV increments) imposed for 2 sec. […]
All experiments were carried out at 18° C. […] The time constants (τ) of voltage-dependent transitions of hemi-channel currents were calculated using data fitting functions in Origin 6.0 (Microcal Software, Northampton, Mass.). […]

Row | Compound | percentage inhibition of Px1 peak current values (300 μM FFA) | percentage inhibition of Px1 peak current values (3 μM CBX)
1 | O=C(O)c1ccccc1Nc1cccc(C(F)(F)F)c1 [flufenamic acid] | 30-35% | 
2 | CC1(C)[C@@H](OC(=O)CCC(=O)O)CC[C@]2(C)[C@H]3C(=O)C=C4[C@@H]5C[C@@](C)(C(=O)O)CC[C@]5(C)CC[C@@]4(C)[C@]3(C)CC[C@@H]12 [carbenoxolone] |  | 30-35%
